{
  "source": "PubChem BioAssay AID445",
  "about": "(National Center for Advancing Translational Sciences (NCATS), 2006)",
  "note": "Some of the results follow. These are further read-outs of the screen, such as a control signal, another cell line or another target. No call is given for them. Compounds called inactive in the main read-out are mostly missing here. Words in brackets tell the shape of the fitted curve; partial curves, single points and poor fits give uncertain potencies.",
  "data": [
    {"assay": "IkB Signaling", "conditions": "ABC-DLBCL IkBa-CBG/CBR dual luciferase ratio (green luciferase fused to IkBa over red control in OCI-Ly3 lymphoma cells), 4 h; measured here: control luc red channel unless noted", "method_in_brief": "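Luminescence ratio of IκBα-fused green versus native red beetle luciferase in OCI-Ly3 cells, 4 h post-doxycycline with compound; red signal alone, scaled from basal (0%) to zero light (-100%), flagged nonspecific or cytotoxic effects.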", "values": [
      {"molecule": "O=C(CC1C(=O)N(c2ccccc2)C(=O)N1Cc1ccc(F)cc1)Nc1cccc(F)c1", "note": "(stereo unspecified)", "AC50": "31.6 µM [falling, single point]"},
      {"molecule": "O=C(CSc1nc(=O)n(CCN2CCOCC2)c2c1CCC2)Nc1ccccc1", "AC50": "3.98 µM [rising, partial curve, poor fit]"},
      {"molecule": "CN(C)c1ccc(-c2ccc3ncnc(N(C)C)c3c2)cc1", "AC50": "1.26 µM [rising, partial curve] [measured here: IkB-luc green channel]"},
      {"molecule": "Cc1ccc2c(c1)N(C(=O)CCC(=O)NCc1ccccc1Cl)CC(C)O2", "note": "(stereo unspecified)", "AC50": "15.8 µM [falling, single point]"},
      {"molecule": "Cc1ccccc1Nc1nc(-c2cccc(Cl)c2)c2c(n1)-c1ccccc1OC2", "AC50": "10 µM [falling, partial curve]"},
      {"molecule": "CC(NC(=O)Cn1c(=O)oc2cc(S(=O)(=O)NCc3ccccc3)ccc21)c1ccccc1", "note": "(stereo unspecified)", "AC50": "31.6 µM [falling, single point]"},
      {"molecule": "COc1ccc(Nc2nc(N)c3cc(OC)c(OC)cc3n2)cc1", "AC50": "15.8 µM [falling, partial curve]"},
      {"molecule": "C=CCOc1c(Cl)cc(C2NC(=O)NC(C)=C2C(=O)OC)cc1Cl", "note": "(stereo unspecified)", "AC50": "20 µM [falling, partial curve]"},
      {"molecule": "COc1ccc(CNC(=O)c2c3c(nc4ccccc24)C(=O)N(C2CCCCC2)C3)cc1", "AC50": "15.8 µM [falling, partial curve]"},
      {"molecule": "CCOC(=O)c1oc2ccc(S(=O)(=O)n3nc(-c4ccc(Br)cc4)cc3N)cc2c1C", "AC50": "0.158 µM [falling, full curve]"},
      {"molecule": "COc1cccc(CNC(=O)c2nn(-c3ccc(C)cc3)c(=O)c3c2c2ccccc2n3C)c1", "AC50": "12.6 µM [rising, partial curve]"},
      {"molecule": "COc1ccccc1Nc1nn2c(=O)c3ccc(C(=O)N4CCCC(C)C4)cc3nc2s1", "note": "(stereo unspecified)", "AC50": "12.6 µM [falling, partial curve]"},
      {"molecule": "COc1ccccc1CNS(=O)(=O)c1ccc2c(c1)NC(=O)CC(=O)N2", "AC50": "25.1 µM [falling, single point]"},
      {"molecule": "Cc1ccc(-n2nc(C)c3c(C(=O)NCc4ccccc4)cc(C4CC4)nc32)cc1", "AC50": "39.8 µM [falling, single point]"},
      {"molecule": "COc1ccc(C2CC(=O)N(Cc3cccc(F)c3)c3ccccc3S2)cc1", "note": "(stereo unspecified)", "AC50": "39.8 µM [falling, partial curve, poor fit]"},
      {"molecule": "CCCc1cnc2c(c1SCC(=O)Nc1ccc(C)c(Cl)c1)c(=O)n(C)c(=O)n2C", "AC50": "25.1 µM [falling, single point]"},
      {"molecule": "CCOc1ccccc1NC(=O)c1ccc(F)c(S(=O)(=O)NCc2ccc3c(c2)OCO3)c1", "AC50": "39.8 µM [falling, single point]"},
      {"molecule": "Cc1cccc(NC(=O)c2ccccc2Br)n1", "AC50": "0.251 µM [falling, full curve, poor fit]"},
      {"molecule": "O=c1cc(-c2ccccc2)nc2nc(-c3ccccc3)[nH]n12", "AC50": "0.794 µM [falling, full curve]"},
      {"molecule": "CCOc1ccccc1NC(=O)N1CCc2c(sc(C)c2CC)C1c1ccccc1", "note": "(stereo unspecified)", "AC50": "10 µM [falling, full curve, poor fit]"},
      {"molecule": "Cc1ccc(N2CCN(S(=O)(=O)c3ccc(F)c(C)c3)CC2)c(C)c1", "AC50": "7.94 µM [falling, partial curve]"},
      {"molecule": "COc1ccccc1-c1nnc(SCC(=O)Nc2ccccc2)o1", "AC50": "0.158 µM [falling, full curve]"},
      {"molecule": "Cc1noc(/C=C/c2cccs2)c1S(=O)(=O)N1CCC(C(=O)NCc2ccccc2Cl)CC1", "AC50": "0.2 µM [rising, full curve, poor fit]"},
      {"molecule": "Cc1ccc(N2C(=O)c3oc4ccccc4c(=O)c3C2c2cccc(O)c2)nc1", "note": "(stereo unspecified)", "AC50": "20 µM [falling, partial curve]"},
      {"molecule": "Cc1ccc(C)c(NC(=O)CSc2nnc(CCCCCNC(=O)OC(C)(C)C)o2)c1", "AC50": "7.94 µM [falling, partial curve]"},
      {"molecule": "CCc1ccccc1N1CC(c2nc3ccccc3n2CCCCOc2ccccc2)CC1=O", "note": "(stereo unspecified)", "AC50": "7.94 µM [falling, partial curve]"},
      {"molecule": "CC(=O)c1ccc(N2CCN(S(=O)(=O)c3ccc4c(c3)C(C)(C)C(=O)N4)CC2)cc1", "AC50": "0.0126 µM [falling, full curve, poor fit]"},
      {"molecule": "Oc1ccccc1-c1nc(/C=C/c2ccc(F)cc2)nn1-c1ccccc1", "AC50": "1.26 µM [falling, partial curve]"},
      {"molecule": "COc1cccc(/C=C/C(=O)Nc2ccc3nc(N4CCN(C)CC4)cc(C)c3c2)c1OC", "AC50": "31.6 µM [falling, single point]"},
      {"molecule": "COC(=O)c1cccc(-n2c(CCC(=O)O)ccc2-c2cccs2)c1", "AC50": "12.6 µM [falling, partial curve]"},
      {"molecule": "COc1ccc2[nH]c(=O)c(CN(Cc3cccs3)S(=O)(=O)c3cccc4nsnc34)cc2c1", "AC50": "3.16 µM [falling, partial curve]"},
      {"molecule": "O=C(c1cc2ccc3cccnc3c2[nH]1)N1CCN(c2ccccc2)CC1", "AC50": "39.8 µM [falling, single point]"},
      {"molecule": "CCOC(=O)Nc1ccc2c(c1)Nc1ccccc1S2", "AC50": "12.6 µM [falling, partial curve]"},
      {"molecule": "COc1ccc(NC(=O)c2cc(-c3ccc(C)o3)nc3ccccc23)cc1OC", "AC50": "10 µM [falling, partial curve]"},
      {"molecule": "CCc1ccccc1NC(=O)C1CCCN(C(=O)c2cnn(-c3ccccc3)c2-n2cccc2)C1", "note": "(stereo unspecified)", "AC50": "25.1 µM [falling, single point]"},
      {"molecule": "c1csc(CN2CCN(Cc3cccs3)C2c2cccs2)c1", "AC50": "25.1 µM [rising, partial curve] [measured here: IkB-luc green channel]"},
      {"molecule": "CCOc1ccc(N2CC(NC(=O)c3ccc(S(=O)(=O)N4CCCCC4)cc3)CC2=O)cc1", "note": "(stereo unspecified)", "AC50": "6.31 µM [falling, single point]"},
      {"molecule": "Cc1ccc(NC(=O)CSc2nc3ccccc3nc2N2CCOCC2)cc1", "AC50": "39.8 µM [falling, single point]"},
      {"molecule": "Cc1ccc(C(c2nnnn2Cc2cccs2)N2CCN(Cc3ccc4c(c3)OCO4)CC2)cc1", "note": "(stereo unspecified)", "AC50": "12.6 µM [falling, partial curve]"},
      {"molecule": "COc1cc(NC(=O)CSc2ncccc2C(=O)OC(C)C)cc(OC)c1", "AC50": "0.00631 µM [falling, full curve, poor fit]"},
      {"molecule": "CCN1C(C(=O)c2ccccc2)=C(OC(=O)c2ccccc2OC)c2ccccc2S1(=O)=O", "AC50": "7.94 µM [falling, full curve]"},
      {"molecule": "CCOc1ccc(-c2nc(CSCC(=O)NCc3ccc(Cl)cc3)c(C)o2)cc1", "AC50": "31.6 µM [falling, single point]"},
      {"molecule": "CCN(CC)CCNC(=O)c1ccc2c(=O)n3nc(Nc4ccccc4OC)sc3nc2c1", "AC50": "31.6 µM [falling, partial curve]"},
      {"molecule": "CCOC(=O)CSc1nc2c(c(=O)n(Cc3ccccc3Cl)c(=O)n2C)n1C", "AC50": "25.1 µM [rising, single point] [measured here: IkB-luc green channel]"},
      {"molecule": "CCCn1c(=O)c(C(=O)NCc2ccc(OC)c(OC)c2)c(O)c2ccccc21", "AC50": "39.8 µM [falling, single point]"},
      {"molecule": "CC(=O)c1cc2c(cc1N/C(=N/S(=O)(=O)c1ccc(C)cc1)c1ccc(F)cc1)OCO2", "AC50": "3.16 µM [rising, partial curve]"},
      {"molecule": "CCn1c(SCC(=O)Nc2cccc(NC(=O)c3ccco3)c2)nnc1-c1cccs1", "AC50": "7.94 µM [falling, partial curve]"},
      {"molecule": "CCSc1nc2n(n1)C(c1ccc(Cl)cc1Cl)C(C(=O)Nc1ccccc1C)=C(C)N2", "note": "(stereo unspecified)", "AC50": "31.6 µM [falling, single point]"},
      {"molecule": "CCCCOc1ccc(C(=O)N(Cc2ccc(N(C)C)cc2)Cc2ccco2)cc1", "AC50": "20 µM [falling, partial curve]"},
      {"molecule": "CC(C)(C)c1ccc(-c2nc(NC(=O)CSc3ncnc4sc5c(c34)CCCC5)ns2)cc1", "AC50": "0.2 µM [falling, full curve, poor fit]"},
      {"molecule": "Cc1ccc(-n2ncc3c(NCc4ccccc4)ncnc32)cc1Cl", "AC50": "20 µM [falling, single point]"},
      {"molecule": "COc1ccc(N2CC(NC(=O)/C=C\\c3ccc4c(c3)OCO4)CC2=O)cc1OC", "note": "(stereo unspecified)", "AC50": "25.1 µM [falling, single point]"},
      {"molecule": "O=C(NCCc1csc(-c2cccnc2)n1)c1cccc(Cl)c1", "AC50": "31.6 µM [falling, single point]"},
      {"molecule": "Cc1ccc2ncc(C(=O)c3ccc(C)c(C)c3)c(S(=O)(=O)c3ccc(F)cc3)c2c1", "AC50": "3.16 µM [falling, full curve]"},
      {"molecule": "CCOc1ccc(CC(=O)NCCc2sc3nc(-c4ccc(F)cc4)nn3c2C)cc1", "AC50": "7.94 µM [falling, partial curve]"},
      {"molecule": "O=C(c1ccc(COc2ccccc2Cl)o1)N1CCN(c2ccccc2)CC1", "AC50": "15.8 µM [falling, partial curve]"},
      {"molecule": "Cc1ccccc1Cn1c(SCc2ccc(C(=O)NC3CCCCC3)cc2)nc2ccncc21", "AC50": "31.6 µM [falling, partial curve]"},
      {"molecule": "CC(C)N(Cc1nc(-c2ccc(Cl)cc2)no1)C(=O)c1ccc(C(C)(C)C)cc1", "AC50": "25.1 µM [falling, partial curve]"},
      {"molecule": "CC(C)Cc1cc(C(=O)NCc2cccs2)no1", "AC50": "12.6 µM [falling, partial curve]"},
      {"molecule": "Cc1cccc(NC(=O)CSc2nc3ccc(NC(=O)c4ccccc4)cc3s2)c1", "AC50": "3.98 µM [falling, full curve]"},
      {"molecule": "CC1=C(c2ccc(Cl)cc2)S(=O)(=O)N=C1N1CCN(c2cccc(C)c2C)CC1", "AC50": "3.16 µM [rising, partial curve]"}
    ]}
  ]
}
